This test can be described thus: qHTS Assay for Lipid Storage Modulators in Drosophila S3 Cells.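 As to cell number change: cells counted by Cell Tracker Red CMTPX staining in the red channel.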 The conditions noted are these: BODIPY lipid droplet fluorescence, 18-24 h; for cell number change: measured here: cell count max response, cells fed with added oleic acid. In a few lines: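 Drosophila S3 cells loaded with oleic acid (400 uM, as added) and compounds at several concentrations; lipid droplets imaged by 488-nm laser-scanning cytometry, 500–530 nm intensity and object ratio to cell channel. Percent activity normalized to 20 uM Triacsin C.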
(In qHTS, concentration-response curves come from the screen itself.)

Where [1] appears, read: measured here: cell number channel AC50, cells fed with added oleic acid.
[2] abbreviates: measured here: lipid fluorescence (Fed channel) AC50, cells fed with added oleic acid.

The other results are listed elsewhere or left out. The main result of the screen is listed elsewhere. These columns were measured beside it and carry no call. The list favours compounds with an active or inconclusive main result. Potencies come from curve fits of mixed quality, noted in brackets.

For the compound `COc1cc(OC)cc(C(=O)OCC(=O)Nc2ccc3[nH]c(=O)[nH]c3c2)c1`, the cell number change was determined as 8%. In general, AC50 refers to the midpoint of the concentration-response curve, whichever way the signal moves. On to `COc1cc2nc(C3CCC3)nc(N3CCN(c4ccccc4OC)CC3)c2cc1OC`, for which the cell number change stood at 4.24%. Further, the AC50 under setting [1] was 1.64 µM [rising, partial curve]. Under setting [2], the AC50 is 6.51 µM [falling, single point].

As to `O=C(Cn1c2c(sc1=O)C1c3ccccc3OCC1CS2)Nc1ccc(Cl)cc1` (configuration not stated), the cell number change was determined as 0.15%. Under setting [2], the AC50 is 4.11 µM [falling, single point]. For the compound `CCC(C)NC(=O)CN1C(=O)CC(C)(C)S(=O)(=O)c2ccccc21` (configuration not stated), the cell number change amounted to 13.9%. Same read-out and setting: for `COc1ccccc1C(=O)n1nc(C)cc1C` the value was 30.9%. As for `CN1CCN(/N=C/c2cccc(Cl)c2Cl)CC1`, the cell number change was -4.64%. Moreover, the AC50 under setting [1] was 2.31 µM [falling, single point]. Under setting [2], the AC50 is 2.31 µM [falling, partial curve]. Turning to `CCOC(=O)N1CCC2(CC1)CC(=O)c1cc(O)ccc1O2`, the cell number change is -10.1%. Moreover, the AC50 under setting [1] is 0.164 µM [falling, full curve, poor fit]. In addition, under setting [2], the AC50 is 5.8 µM [falling, single point]. As to `COCCn1c(SCc2ccc(C(=O)OC)o2)nnc1-c1c[nH]c2ccccc12`, the cell number change worked out at 46.3%. Moreover, the AC50 under setting [1] was 4.11 µM [rising, full curve, poor fit]. In addition, under setting [2], the AC50 is 4.11 µM [rising, partial curve, poor fit]. As for `COc1cc(/C=N/Nc2nc(C)cc(C)n2)ccc1OC(=O)c1ccco1`, the cell number change came out at 8.92%. Turning to `COC(=O)c1cnn(C(=O)c2ccccc2Br)c1N`, the cell number change is -17%. For the same compound, under setting [2], the AC50 is 23.1 µM [falling, single point].

Consider `O=C(CCc1ccccc1)NCCS(=O)(=O)N1CCN(c2ccccc2)CC1`, for which the cell number change was 9.73%.

With `COc1cc(OC)cc(C(=O)OCCCOC(=O)c2cc(OC)cc(OC)c2)c1`, the cell number change came to 4.11%. Moreover, under setting [1], the AC50 was 6.51 µM [rising, single point]. `O=C(O)CSc1nc(SCc2ccccc2Cl)nc2c1CCCC2`: the cell number change was determined as 18.9%. Moreover, the AC50 under setting [2] is 2.91 µM [rising, single point]. Take `Cc1nnc(SCC(=O)NC(=O)NCCC(C)C)s1`: the cell number change was found to be 36.5%. For the same compound, the AC50 under setting [1] is 0.116 µM [rising, full curve, poor fit]. Also, under setting [2], the AC50 is 0.13 µM [rising, full curve, poor fit].

Take `CC1(C)CC(=O)C2=C(C1)OC(N)=C([N+](=O)[O-])C2c1ccc(C#N)s1` (configuration not stated): the cell number change was -11.8%. The concentration at half-maximal activity (AC50) under setting [2] is 16.4 µM [falling, single point]. As for `O=C(COc1ccc([N+](=O)[O-])cc1)NC(C(=O)O)C(O)c1cccc([N+](=O)[O-])c1` (configuration not stated), the cell number change worked out at 4.39%. For the same compound, the AC50 under setting [2] is 3.66 µM [rising, single point]. `O=C(NCC(c1cccs1)N1CCOCC1)c1cc(S(=O)(=O)N2CCOCC2)ccc1F` (configuration not stated): the cell number change amounted to 27.5%. Turning to `Clc1ccc(-c2noc(CSc3nnc(-c4ccncc4)n3-c3ccccc3)n2)cc1`, the cell number change is 4.65%. Besides, under setting [1], the concentration at half-maximal activity (AC50) is 1.46 µM [rising, partial curve]. For the same compound, under setting [2], the AC50 is 4.11 µM [rising, partial curve, poor fit]. For the compound `CCOP(=O)(OCC)C(Nc1ccccc1)c1cccnc1` (configuration not stated), the cell number change amounted to 19.6%. In addition, under setting [2], the AC50 was 11.6 µM [rising, partial curve].

Turning to `Cc1c(Cl)cccc1NC(=O)c1cc(C2CC2)on1`, the cell number change stood at 19.1%. Turning to `CCOC(=O)c1c(C)[nH]c(C(=O)COC(=O)CNS(=O)(=O)c2ccc(C)cc2)c1C`, the cell number change is -40.8%. Moreover, the concentration at half-maximal activity (AC50) under setting [1] was 9.2 µM [falling, partial curve]. The AC50 under setting [2] is 8.2 µM [falling, partial curve]. As to `O=C(NCCc1ccc(F)cc1)c1cc2ccccc2oc1=O`, the cell number change was 10.8%. As for `O=C(NCc1ccc(N2CCCC2=O)cc1)Nc1ccccc1`, the cell number change was determined as 105%. Further, the AC50 under setting [1] was 16.4 µM [rising, partial curve]. The AC50 under setting [2] is 6.51 µM [rising, single point]. On to `Cc1ccc(SCCC(=O)Nc2ccccc2C(=O)NC2CCCCC2)cc1`, for which the cell number change is -10.8%. For the same compound, the concentration at half-maximal activity (AC50) under setting [2] was 6.51 µM [rising, single point]. For `NC(=O)c1ccc(NC(=O)c2ccc(COc3ccc(F)cc3)o2)cc1`, the cell number change is 2.59%. The AC50 under setting [2] is 23.1 µM [rising, partial curve]. For `Cc1ccc(SCCNC(=O)CN2C(=O)c3ccccc3S2(=O)=O)cc1`, the cell number change was -18.3%. Also, under setting [1], the AC50 is 0.00366 µM [falling, full curve, poor fit].

For the compound `O=[N+]([O-])c1cccc(-c2n[nH]c(=S)n2Cc2ccccc2)c1`, the cell number change was 2%. In addition, the AC50 under setting [2] is 11.6 µM [rising, partial curve]. With `CCCC(=O)N1CCN(c2ccc(NC(=O)c3cc4ccccc4o3)cc2)CC1`, the cell number change came out at 13.6%. As for `O=C(NCC1CCCO1)c1ccc(CS(=O)(=O)c2c(Cl)cccc2Cl)o1` (configuration not stated), the cell number change is 12.5%. In addition, the concentration at half-maximal activity (AC50) under setting [2] is 18.4 µM [rising, single point]. With `CS(=O)(=O)Oc1ccc2c(c1)O/C(=C\c1cccnc1)C2=O`, the cell number change was -14.6%. For the same compound, the AC50 under setting [2] was 13 µM [falling, partial curve, poor fit]. Consider `CN(C)S(=O)(=O)c1cccc(NC(=O)CN2C(=O)NC3(CCc4ccccc4C3)C2=O)c1` (configuration not stated), for which the cell number change turned out to be 0.427%. For `O=c1oc2ccccc2c(O)c1Cc1cc(Cl)c2cccnc2c1O`, the cell number change was -53.2%. The half-maximal activity concentration (AC50) under setting [1] is 0.82 µM [falling, full curve]. Moreover, the AC50 under setting [2] was 1.3 µM [falling, full curve]. As to `CC1CCCC/C1=N\NC(=S)Nc1cccnc1` (configuration not stated), the cell number change turned out to be 8.6%. The AC50 under setting [2] is 6.51 µM [rising, single point]. Turning to `CC(=O)Oc1ccc2c(C)c(CC(C)O)c(=O)oc2c1` (configuration not stated), the cell number change worked out at 2.99%. Besides, the AC50 under setting [2] was 3.66 µM [rising, single point].

Turning to `CCOC(=O)N1CCN(S(=O)(=O)c2ccc(C(=O)Nc3ccc4c(c3)C(=O)NC4=O)cc2)CC1`, the cell number change amounted to 8.03%. Moreover, the AC50 under setting [1] was 1.84 µM [falling, partial curve]. For the compound `O=C(CSc1nc(-c2ccco2)cc(C(F)(F)F)n1)Nc1cccnc1`, the cell number change is -8.27%. In addition, the half-maximal activity concentration (AC50) under setting [2] is 0.00517 µM [rising, full curve, poor fit].

As for `Fc1ccc(NC2=NCCCCC2)cc1`, the cell number change is -25.4%. On the same count and under the same terms, for `Cc1cc(N2C(=O)C3C4c5ccccc5C(c5ccccc54)C3C2=O)no1` (configuration not stated) the value was 1.45%. As to `Cc1ccc(S(=O)(=O)N(C)C)cc1NC(=O)CSc1nc2ncc(Cl)cc2[nH]1`, the cell number change turned out to be 31.5%. Under setting [1], the AC50 was 9.2 µM [rising, partial curve, poor fit]. With `COCCCNCCOCCOc1ccc(C)cc1[N+](=O)[O-]`, the cell number change amounted to 32.8%. For the same compound, the AC50 under setting [1] was 25.9 µM [rising, single point].
